Reference: the supplement of paper PMC6411743
± gives the standard deviation of the averaged measurements. Only a part is listed here, and it is no random draw.

Sequences of proteins named here, by UniProt entry; tags and fusion partners are left off. A change or cut given only in a name is not applied to a line headed by its entry.
UniProt Q6ICB0: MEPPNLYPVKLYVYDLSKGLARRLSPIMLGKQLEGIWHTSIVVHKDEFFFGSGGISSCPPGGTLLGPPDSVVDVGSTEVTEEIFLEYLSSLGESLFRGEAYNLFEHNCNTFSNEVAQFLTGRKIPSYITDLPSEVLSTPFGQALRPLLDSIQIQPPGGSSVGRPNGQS
UniProt Q6ZVM7: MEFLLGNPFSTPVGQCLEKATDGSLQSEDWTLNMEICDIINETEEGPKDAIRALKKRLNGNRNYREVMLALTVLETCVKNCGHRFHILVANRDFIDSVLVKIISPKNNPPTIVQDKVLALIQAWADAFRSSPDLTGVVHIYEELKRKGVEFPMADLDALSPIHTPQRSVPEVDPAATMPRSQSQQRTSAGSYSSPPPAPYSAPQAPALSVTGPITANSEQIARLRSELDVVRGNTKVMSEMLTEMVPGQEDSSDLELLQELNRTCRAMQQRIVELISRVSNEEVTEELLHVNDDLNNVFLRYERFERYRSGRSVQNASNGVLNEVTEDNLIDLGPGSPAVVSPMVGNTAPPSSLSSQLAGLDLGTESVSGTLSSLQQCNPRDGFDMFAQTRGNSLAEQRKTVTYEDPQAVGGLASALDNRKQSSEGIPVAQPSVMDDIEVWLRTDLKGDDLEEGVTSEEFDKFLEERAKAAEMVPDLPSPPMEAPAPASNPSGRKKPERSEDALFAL
UniProt Q6F5E8: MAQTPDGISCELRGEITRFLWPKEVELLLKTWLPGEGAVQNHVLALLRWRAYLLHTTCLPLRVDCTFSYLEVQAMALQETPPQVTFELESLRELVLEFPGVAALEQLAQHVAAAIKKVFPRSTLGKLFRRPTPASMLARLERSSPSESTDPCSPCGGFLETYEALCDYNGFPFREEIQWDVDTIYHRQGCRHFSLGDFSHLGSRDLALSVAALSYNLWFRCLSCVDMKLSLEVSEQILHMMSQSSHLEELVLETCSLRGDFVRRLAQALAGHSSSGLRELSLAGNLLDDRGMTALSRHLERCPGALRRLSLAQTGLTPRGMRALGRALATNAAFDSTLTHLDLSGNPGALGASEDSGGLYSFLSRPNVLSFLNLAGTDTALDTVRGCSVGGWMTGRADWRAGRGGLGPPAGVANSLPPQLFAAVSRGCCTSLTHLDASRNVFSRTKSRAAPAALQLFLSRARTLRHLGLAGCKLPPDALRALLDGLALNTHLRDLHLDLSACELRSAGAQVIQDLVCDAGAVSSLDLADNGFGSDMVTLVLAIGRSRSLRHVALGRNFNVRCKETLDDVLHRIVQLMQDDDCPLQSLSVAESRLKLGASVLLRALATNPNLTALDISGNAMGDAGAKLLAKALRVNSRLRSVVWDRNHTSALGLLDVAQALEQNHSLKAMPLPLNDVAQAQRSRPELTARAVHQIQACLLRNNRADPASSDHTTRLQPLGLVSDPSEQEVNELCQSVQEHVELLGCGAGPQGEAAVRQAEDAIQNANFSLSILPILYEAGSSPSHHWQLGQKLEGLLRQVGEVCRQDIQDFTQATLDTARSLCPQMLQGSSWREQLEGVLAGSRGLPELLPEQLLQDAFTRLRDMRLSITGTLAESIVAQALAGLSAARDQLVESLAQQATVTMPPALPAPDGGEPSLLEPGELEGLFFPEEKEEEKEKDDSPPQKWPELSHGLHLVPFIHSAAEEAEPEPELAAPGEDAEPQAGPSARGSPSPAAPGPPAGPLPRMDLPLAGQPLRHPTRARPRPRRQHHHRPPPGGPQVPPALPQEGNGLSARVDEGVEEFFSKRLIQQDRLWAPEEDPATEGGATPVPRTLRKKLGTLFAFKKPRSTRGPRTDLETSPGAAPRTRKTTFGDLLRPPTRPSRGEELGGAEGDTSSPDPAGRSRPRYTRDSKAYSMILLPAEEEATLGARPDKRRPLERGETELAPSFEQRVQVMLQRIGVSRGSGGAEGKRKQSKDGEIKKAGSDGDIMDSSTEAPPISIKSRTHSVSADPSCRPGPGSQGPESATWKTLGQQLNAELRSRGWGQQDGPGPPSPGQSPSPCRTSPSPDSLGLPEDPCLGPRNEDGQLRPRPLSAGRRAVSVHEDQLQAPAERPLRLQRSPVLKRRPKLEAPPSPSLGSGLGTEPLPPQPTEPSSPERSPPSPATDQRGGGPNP
UniProt Q6P1M0: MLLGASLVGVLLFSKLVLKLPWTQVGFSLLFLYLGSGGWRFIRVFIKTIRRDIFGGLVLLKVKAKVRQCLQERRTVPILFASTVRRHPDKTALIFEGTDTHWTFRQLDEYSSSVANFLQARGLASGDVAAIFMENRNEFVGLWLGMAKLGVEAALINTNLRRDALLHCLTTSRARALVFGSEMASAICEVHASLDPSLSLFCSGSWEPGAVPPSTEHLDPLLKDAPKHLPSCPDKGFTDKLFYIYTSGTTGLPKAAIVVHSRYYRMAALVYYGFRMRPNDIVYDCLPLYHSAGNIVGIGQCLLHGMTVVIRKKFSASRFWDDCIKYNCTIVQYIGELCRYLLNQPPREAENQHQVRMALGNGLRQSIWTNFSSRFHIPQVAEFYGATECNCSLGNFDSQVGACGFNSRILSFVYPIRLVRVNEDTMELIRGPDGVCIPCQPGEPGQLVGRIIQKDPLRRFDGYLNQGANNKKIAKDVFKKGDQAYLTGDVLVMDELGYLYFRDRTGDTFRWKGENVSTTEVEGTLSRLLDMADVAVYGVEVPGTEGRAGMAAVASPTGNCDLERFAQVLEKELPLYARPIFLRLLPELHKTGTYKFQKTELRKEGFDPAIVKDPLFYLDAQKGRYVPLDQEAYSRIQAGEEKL
UniProt Q6P087: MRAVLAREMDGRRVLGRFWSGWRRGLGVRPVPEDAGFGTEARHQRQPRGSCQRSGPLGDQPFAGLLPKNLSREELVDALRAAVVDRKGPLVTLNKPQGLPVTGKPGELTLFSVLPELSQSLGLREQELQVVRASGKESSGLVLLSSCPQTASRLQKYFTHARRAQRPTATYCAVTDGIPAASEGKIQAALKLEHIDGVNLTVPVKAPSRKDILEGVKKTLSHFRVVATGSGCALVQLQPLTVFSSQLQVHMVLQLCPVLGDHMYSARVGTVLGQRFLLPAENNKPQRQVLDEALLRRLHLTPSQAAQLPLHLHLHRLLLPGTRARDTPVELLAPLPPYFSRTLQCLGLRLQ
UniProt Q9HBG7: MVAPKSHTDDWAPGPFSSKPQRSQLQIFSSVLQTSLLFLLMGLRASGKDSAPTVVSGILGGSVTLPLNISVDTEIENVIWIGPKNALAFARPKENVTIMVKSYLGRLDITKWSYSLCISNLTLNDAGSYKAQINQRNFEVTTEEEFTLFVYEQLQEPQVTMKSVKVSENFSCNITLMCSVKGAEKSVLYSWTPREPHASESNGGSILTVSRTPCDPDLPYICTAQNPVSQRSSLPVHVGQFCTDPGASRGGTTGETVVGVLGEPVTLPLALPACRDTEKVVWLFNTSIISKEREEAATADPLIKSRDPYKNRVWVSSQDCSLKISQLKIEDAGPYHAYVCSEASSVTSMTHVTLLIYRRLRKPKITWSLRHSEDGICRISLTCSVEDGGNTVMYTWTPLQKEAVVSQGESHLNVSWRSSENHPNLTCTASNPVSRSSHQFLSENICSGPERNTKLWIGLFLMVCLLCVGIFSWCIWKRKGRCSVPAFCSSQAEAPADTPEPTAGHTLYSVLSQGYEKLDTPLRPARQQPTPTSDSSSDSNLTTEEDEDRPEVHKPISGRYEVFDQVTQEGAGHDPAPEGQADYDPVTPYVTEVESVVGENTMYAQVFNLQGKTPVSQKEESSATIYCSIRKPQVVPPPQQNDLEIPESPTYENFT
UniProt Q6P4I2: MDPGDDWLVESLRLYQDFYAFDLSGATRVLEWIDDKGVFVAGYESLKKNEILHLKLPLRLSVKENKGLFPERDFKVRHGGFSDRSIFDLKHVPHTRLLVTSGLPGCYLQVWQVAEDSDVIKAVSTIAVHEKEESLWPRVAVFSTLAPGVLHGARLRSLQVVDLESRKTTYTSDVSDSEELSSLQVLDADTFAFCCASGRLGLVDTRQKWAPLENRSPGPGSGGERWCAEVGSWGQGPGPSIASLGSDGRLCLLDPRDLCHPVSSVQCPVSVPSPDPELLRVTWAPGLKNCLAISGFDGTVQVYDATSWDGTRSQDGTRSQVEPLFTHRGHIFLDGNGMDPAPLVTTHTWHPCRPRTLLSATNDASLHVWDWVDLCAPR
UniProt Q7L0Y3: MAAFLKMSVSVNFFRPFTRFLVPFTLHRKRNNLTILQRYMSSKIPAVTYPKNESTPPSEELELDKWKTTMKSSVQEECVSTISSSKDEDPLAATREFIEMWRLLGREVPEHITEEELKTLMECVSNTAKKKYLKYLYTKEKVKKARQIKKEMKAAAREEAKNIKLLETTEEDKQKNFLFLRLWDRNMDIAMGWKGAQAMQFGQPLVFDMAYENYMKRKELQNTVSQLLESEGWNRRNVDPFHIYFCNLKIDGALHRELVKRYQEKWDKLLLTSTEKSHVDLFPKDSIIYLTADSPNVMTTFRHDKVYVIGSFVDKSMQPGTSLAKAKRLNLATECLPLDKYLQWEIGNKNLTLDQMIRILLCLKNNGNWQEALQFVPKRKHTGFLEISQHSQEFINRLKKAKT
UniProt Q7Z3T8: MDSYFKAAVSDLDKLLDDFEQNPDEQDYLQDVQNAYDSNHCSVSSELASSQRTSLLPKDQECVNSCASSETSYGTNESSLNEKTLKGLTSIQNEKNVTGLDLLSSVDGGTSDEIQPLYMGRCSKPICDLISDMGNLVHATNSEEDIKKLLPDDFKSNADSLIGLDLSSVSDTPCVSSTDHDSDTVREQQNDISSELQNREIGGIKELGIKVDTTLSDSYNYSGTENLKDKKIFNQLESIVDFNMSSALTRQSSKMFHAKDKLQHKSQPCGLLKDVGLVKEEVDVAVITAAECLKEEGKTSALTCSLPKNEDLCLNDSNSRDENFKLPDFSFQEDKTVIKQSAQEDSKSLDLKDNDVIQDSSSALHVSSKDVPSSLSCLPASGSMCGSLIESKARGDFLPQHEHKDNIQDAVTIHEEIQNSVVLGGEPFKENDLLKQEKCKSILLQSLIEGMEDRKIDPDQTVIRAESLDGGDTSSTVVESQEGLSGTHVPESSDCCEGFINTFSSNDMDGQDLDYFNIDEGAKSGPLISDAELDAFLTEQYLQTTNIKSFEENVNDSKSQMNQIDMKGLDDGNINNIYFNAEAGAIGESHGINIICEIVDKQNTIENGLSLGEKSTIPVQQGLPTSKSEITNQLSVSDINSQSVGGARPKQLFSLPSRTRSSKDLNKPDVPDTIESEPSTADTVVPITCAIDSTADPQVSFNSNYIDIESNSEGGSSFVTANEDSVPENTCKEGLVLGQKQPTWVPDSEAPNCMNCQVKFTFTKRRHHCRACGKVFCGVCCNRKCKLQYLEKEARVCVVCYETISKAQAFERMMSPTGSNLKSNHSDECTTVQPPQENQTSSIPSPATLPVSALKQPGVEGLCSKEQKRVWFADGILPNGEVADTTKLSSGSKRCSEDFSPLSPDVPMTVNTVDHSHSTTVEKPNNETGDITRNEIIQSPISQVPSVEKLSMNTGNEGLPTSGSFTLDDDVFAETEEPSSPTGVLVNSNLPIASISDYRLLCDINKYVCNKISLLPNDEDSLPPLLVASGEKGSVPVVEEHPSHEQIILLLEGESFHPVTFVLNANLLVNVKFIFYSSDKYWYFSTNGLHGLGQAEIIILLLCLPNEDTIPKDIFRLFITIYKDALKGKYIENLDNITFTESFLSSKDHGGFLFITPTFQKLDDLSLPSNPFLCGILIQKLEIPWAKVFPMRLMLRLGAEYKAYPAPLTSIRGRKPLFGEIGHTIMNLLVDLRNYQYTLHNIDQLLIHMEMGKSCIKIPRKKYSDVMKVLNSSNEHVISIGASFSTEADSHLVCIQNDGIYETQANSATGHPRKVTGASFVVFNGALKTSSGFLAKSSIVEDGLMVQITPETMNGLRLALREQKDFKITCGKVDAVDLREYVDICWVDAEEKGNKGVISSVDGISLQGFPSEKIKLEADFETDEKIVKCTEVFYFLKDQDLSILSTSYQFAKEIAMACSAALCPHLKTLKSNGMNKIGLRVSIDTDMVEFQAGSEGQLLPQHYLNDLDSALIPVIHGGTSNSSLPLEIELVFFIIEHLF
UniProt Q6PHR2: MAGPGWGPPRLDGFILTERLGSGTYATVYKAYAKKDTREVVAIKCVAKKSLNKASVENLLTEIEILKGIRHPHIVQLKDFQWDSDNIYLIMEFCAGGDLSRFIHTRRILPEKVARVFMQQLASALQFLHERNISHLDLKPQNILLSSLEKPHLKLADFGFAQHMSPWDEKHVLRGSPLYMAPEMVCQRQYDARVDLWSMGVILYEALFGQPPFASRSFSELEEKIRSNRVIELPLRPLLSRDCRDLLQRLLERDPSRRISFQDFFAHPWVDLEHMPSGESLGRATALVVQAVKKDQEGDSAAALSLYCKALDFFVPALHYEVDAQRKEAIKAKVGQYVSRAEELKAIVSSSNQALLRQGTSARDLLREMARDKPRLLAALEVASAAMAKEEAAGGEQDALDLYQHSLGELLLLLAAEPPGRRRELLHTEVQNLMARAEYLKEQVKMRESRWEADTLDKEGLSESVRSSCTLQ

Compound: Nc1ncnc2c1ncn2[C@@H]1O[C@H](COP(=O)(O)OP(=O)(O)NP(=O)(O)O)[C@@H](O)[C@H]1O [adenylyl imidodiphosphate]
Assay: NP40-soluble protein abundance relative to vehicle (solubility fold change) (ratio); higher = more soluble protein in presence of AMP-PNP
In short: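 Across three independent experiments, values are fold changes against the detergent-processed vehicle for each replicate, based on vsn-normalised intensities. The samples were Jurkat crude lysate treated with eight concentrations (0.1 to 10 mM) for 10 min at room temperature and then 3 min at 37 °C. Lysate was solubilised with 0.8% NP40 and benzonase, ultracentrifuged, and the supernatant analysed by TMT-labelled LC-MS/MS.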

Target | NP40-soluble protein abundance (concentration: 1mM) | NP40-soluble protein abundance (concentration: 2mM) | NP40-soluble protein abundance (concentration: 4mM) | NP40-soluble protein abundance (concentration: 6mM) | NP40-soluble protein abundance (concentration: 8mM) | NP40-soluble protein abundance (concentration: 10mM)
SNRNP48 (UniProt Q6IEG0) | 1.05 ± 0.051 | 1.19 ± 0.13 | 1.09 ± 0.062 | 1.1 ± 0.039 | 1.08 ± 0.011 | 1.14 ± 0.066
UniProt Q6ICB0 | 0.984 ± 0.017 | 0.991 ± 0.043 | 0.954 ± 0.037 | 0.993 ± 0.012 | 0.969 ± 0.014 | 0.979 ± 0.044
UniProt Q6ZVM7 and related entries | 0.984 ± 0.027 | 0.987 ± 0.02 | 0.979 ± 0.032 | 0.973 ± 0.021 | 0.983 ± 0.011 | 0.973 ± 0.016
Q5VVD7 and related entries (UniProt Q8IWE5) | 1.01 ± 0.033 | 0.992 ± 0.04 | 1.01 ± 0.051 | 0.999 ± 0.014 | 0.971 ± 0.05 | 0.972 ± 0.072
UniProt Q6F5E8 and related entries | 1.01 ± 0.039 | 1.02 ± 0.024 | 1.05 ± 0.055 | 1.03 ± 0.038 | 1.04 ± 0.029 | 1.05 ± 0.032
UniProt Q6SJ93 and related entries | 0.975 ± 0.024 | 0.943 ± 0.05 | 0.961 ± 0.027 | 0.909 ± 0.019 | 0.9042 ± 0.0059 | 0.884 ± 0.023
UniProt Q7L1Q6 | 0.984 ± 0.042 | 1.01 ± 0.033 | 0.969 ± 0.05 | 1.01 ± 0.048 | 0.987 ± 0.04 | 0.998 ± 0.053
RNF123 (UniProt Q5XPI4) | 0.953 ± 0.024 | 0.9501 ± 0.0088 | 0.965 ± 0.025 | 0.971 ± 0.024 | 0.941 ± 0.027 | 0.949 ± 0.014
UniProt Q6VMQ6 and related entries | 1.01 ± 0.021 | 1.08 ± 0.049 | 1.02 ± 0.03 | 1 ± 0.028 | 0.95 ± 0.011 | 1.01 ± 0.033
SLC27A4 (UniProt Q6P1M0) | 1.03 ± 0.022 | 1 ± 0.037 | 1.04 ± 0.038 | 1.01 ± 0.037 | 1.01 ± 0.028 | 1.03 ± 0.052
SLC30A9 (UniProt Q6PML9) | 1.01 ± 0.018 | 0.9905 ± 0.0025 | 1.02 ± 0.011 | 0.973 ± 0.042 | 1.01 ± 0.018 | 0.997 ± 0.028
UniProt Q6NW34 and related entries | 1.01 ± 0.027 | 1.02 ± 0.033 | 0.977 ± 0.084 | 0.978 ± 0.028 | 0.958 ± 0.043 | 0.965 ± 0.032
UniProt Q7Z422 and related entries | 1.09 ± 0.046 | 1.09 ± 0.058 | 1.05 ± 0.049 | 0.992 ± 0.075 | 0.989 ± 0.039 | 1.01 ± 0.067
UniProt Q6P087 and related entries | 1 ± 0.039 | 1.02 ± 0.019 | 1.02 ± 0.057 | 1.06 ± 0.03 | 1.08 ± 0.025 | 1.07 ± 0.057
RNF20 (UniProt Q5VTR2) | 1.03 ± 0.011 | 1.06 ± 0.034 | 1.03 ± 0.017 | 1 ± 0.037 | 0.969 ± 0.015 | 0.994 ± 0.031
RETSAT (UniProt Q6NUM9) | 0.993 ± 0.031 | 0.973 ± 0.028 | 1 ± 0.018 | 1 ± 0.014 | 1.05 ± 0.04 | 0.998 ± 0.028
EEPD1 (UniProt Q7L9B9) | 0.992 ± 0.037 | 1 ± 0.012 | 0.9996 ± 0.0057 | 0.995 ± 0.035 | 0.9903 ± 0.0092 | 0.973 ± 0.023
SASS6 (UniProt Q6UVJ0) | 1.05 ± 0.011 | 1.05 ± 0.019 | 1.01 ± 0.027 | 1.01 ± 0.027 | 0.975 ± 0.019 | 1.01 ± 0.03
TMED8 (UniProt Q6PL24) | 1.05 ± 0.049 | 1.06 ± 0.097 | 1.06 ± 0.055 | 1.03 ± 0.044 | 1.06 ± 0.081 | 1.04 ± 0.049
UniProt Q5VZI3 and related entries | 0.981 ± 0.025 | 1 ± 0.018 | 1 ± 0.015 | 1.02 ± 0.013 | 1.01 ± 0.032 | 0.98 ± 0.022
Q5VYH9 and related entries (UniProt Q9HBG7) | 1 ± 0.017 | 1.04 ± 0.038 | 0.997 ± 0.013 | 1 ± 0.014 | 0.998 ± 0.031 | 0.979 ± 0.031
UniProt Q6ZWJ1 and related entries | 0.997 ± 0.043 | 1.03 ± 0.067 | 0.986 ± 0.028 | 0.975 ± 0.012 | 0.9969 ± 0.0047 | 0.985 ± 0.056
UniProt Q6ZMI0 | 1.04 ± 0.014 | 1.09 ± 0.068 | 1.03 ± 0.018 | 1.01 ± 0.013 | 0.978 ± 0.015 | 1.01 ± 0.028
UniProt Q7Z3C6 and related entries | 0.978 ± 0.018 | 0.991 ± 0.04 | 0.996 ± 0.034 | 0.987 ± 0.033 | 0.982 ± 0.027 | 0.988 ± 0.03
UniProt Q68CP9 and related entries | 1.06 ± 0.038 | 1.08 ± 0.044 | 1.1 ± 0.067 | 1.12 ± 0.099 | 1.12 ± 0.098 | 1.22 ± 0.15
UniProt Q6N043 and related entries | 1.02 ± 0.027 | 1.07 ± 0.056 | 1.04 ± 0.024 | 1.07 ± 0.027 | 1.09 ± 0.05 | 1.08 ± 0.049

Target | NP40-soluble protein abundance (concentration: 1mM) | NP40-soluble protein abundance (concentration: 2mM) | NP40-soluble protein abundance (concentration: 4mM) | NP40-soluble protein abundance (concentration: 6mM) | NP40-soluble protein abundance (concentration: 8mM) | NP40-soluble protein abundance (concentration: 10mM)
LMBRD2 (UniProt Q68DH5) | 1.02 ± 0.0087 | 1.07 ± 0.086 | 1.01 ± 0.029 | 1.01 ± 0.048 | 0.951 ± 0.019 | 0.992 ± 0.024
ANKRD54 (UniProt Q6NXT1) | 0.994 ± 0.037 | 1.01 ± 0.066 | 0.991 ± 0.029 | 0.99 ± 0.028 | 0.942 ± 0.057 | 0.98 ± 0.042
UniProt Q6P996 and related entries | 1 ± 0.012 | 0.9997 ± 0.0084 | 0.98 ± 0.028 | 0.946 ± 0.036 | 0.939 ± 0.032 | 0.932 ± 0.022
EPM2AIP1 (UniProt Q7L775) | 0.961 ± 0.015 | 0.94 ± 0.032 | 0.96 ± 0.025 | 0.947 ± 0.028 | 0.9617 ± 0.0055 | 0.958 ± 0.041
UniProt Q70Z53 and related entries | 0.966 ± 0.017 | 0.976 ± 0.016 | 0.992 ± 0.01 | 0.982 ± 0.044 | 0.976 ± 0.036 | 0.95 ± 0.045
WDR73 (UniProt Q6P4I2) | 0.99 ± 0.022 | 0.946 ± 0.014 | 0.979 ± 0.013 | 0.944 ± 0.018 | 0.959 ± 0.06 | 0.927 ± 0.019
UniProt Q6UXB8 and related entries | 0.98 ± 0.029 | 0.9743 ± 0.0016 | 0.97 ± 0.037 | 1.01 ± 0.051 | 1.04 ± 0.041 | 1 ± 0.061
UniProt Q7L0Y3 | 1 ± 0.017 | 1 ± 0.042 | 1.07 ± 0.047 | 1.14 ± 0.096 | 1.17 ± 0.092 | 1.13 ± 0.081
UniProt Q7L5D6 | 0.983 ± 0.066 | 0.874 ± 0.065 | 1 ± 0.046 | 0.996 ± 0.058 | 1.04 ± 0.079 | 1.05 ± 0.038
GLT8D1 (UniProt Q68CQ7) | 1.01 ± 0.031 | 1.03 ± 0.022 | 1.03 ± 0.087 | 1.06 ± 0.018 | 1.05 ± 0.055 | 1.08 ± 0.11
ZFYVE16 (UniProt Q7Z3T8) | 1.02 ± 0.015 | 1.07 ± 0.058 | 1.02 ± 0.017 | 0.991 ± 0.024 | 0.972 ± 0.018 | 1.01 ± 0.052
RINT1 (UniProt Q6NUQ1) | 0.997 ± 0.039 | 0.988 ± 0.036 | 0.966 ± 0.031 | 0.963 ± 0.032 | 0.919 ± 0.012 | 0.937 ± 0.05
UniProt Q6PHR2 and related entries | 1.02 ± 0.022 | 0.99 ± 0.05 | 0.991 ± 0.021 | 1.01 ± 0.026 | 1.02 ± 0.052 | 1.02 ± 0.08
PAXIP1 (UniProt Q6ZW49) | 1.02 ± 0.046 | 1.01 ± 0.054 | 1.02 ± 0.046 | 1.02 ± 0.016 | 1.01 ± 0.025 | 1 ± 0.053
RFWD3 (UniProt Q6PCD5) | 0.995 ± 0.021 | 0.969 ± 0.015 | 0.957 ± 0.022 | 0.992 ± 0.011 | 0.9855 ± 0.0065 | 0.968 ± 0.022
UniProt Q7Z406 and related entries | 0.988 ± 0.013 | 0.96 ± 0.067 | 0.956 ± 0.049 | 1.0353 ± 0.00083 | 1.013 ± 0.0054 | 0.983 ± 0.025
UniProt Q5VYS8 and related entries | 1.032 ± 0.0083 | 1.07 ± 0.017 | 1.07 ± 0.038 | 1.05 ± 0.043 | 1.02 ± 0.029 | 1.06 ± 0.031
UniProt Q7Z3K6 and related entries | 1.01 ± 0.025 | 1.03 ± 0.041 | 1.04 ± 0.048 | 0.987 ± 0.032 | 0.976 ± 0.061 | 1 ± 0.048
UHRF1BP1 (UniProt Q6BDS2) | 1 ± 0.042 | 1.006 ± 0.006 | 1.02 ± 0.026 | 1.03 ± 0.033 | 0.998 ± 0.021 | 1.01 ± 0.0068
UniProt Q66PJ3 and related entries | 1.03 ± 0.052 | 1.08 ± 0.067 | 1.06 ± 0.066 | 1.11 ± 0.072 | 1.1 ± 0.12 | 1.17 ± 0.12
UniProt Q6ZNW5 | 0.975 ± 0.032 | 0.932 ± 0.011 | 0.986 ± 0.025 | 1.02 ± 0.049 | 1.01 ± 0.06 | 1.01 ± 0.058
DHRS11 (UniProt Q6UWP2) | 1.03 ± 0.026 | 1.01 ± 0.031 | 1.042 ± 0.0067 | 1.05 ± 0.014 | 1.05 ± 0.026 | 1.05 ± 0.041
TMEM65 (UniProt Q6PI78) | 0.958 ± 0.054 | 1.02 ± 0.093 | 0.976 ± 0.057 | 0.99 ± 0.028 | 0.9858 ± 0.0075 | 0.947 ± 0.047
UniProt Q6IA17 and related entries | 0.974 ± 0.033 | 0.98 ± 0.03 | 0.981 ± 0.046 | 0.987 ± 0.045 | 0.981 ± 0.016 | 0.977 ± 0.022
UniProt Q765P7 | 1.03 ± 0.048 | 1.05 ± 0.097 | 1.03 ± 0.024 | 1.02 ± 0.021 | 0.99 ± 0.03 | 1.01 ± 0.035
SLC25A24 (UniProt Q6NUK1) | 0.956 ± 0.077 | 0.937 ± 0.043 | 0.974 ± 0.07 | 1.09 ± 0.12 | 1.07 ± 0.12 | 1.08 ± 0.089

Some of the entries so far, as a markdown table.

| Target | NP40-soluble protein abundance (concentration: 1mM) | NP40-soluble protein abundance (concentration: 2mM) | NP40-soluble protein abundance (concentration: 4mM) | NP40-soluble protein abundance (concentration: 6mM) | NP40-soluble protein abundance (concentration: 8mM) | NP40-soluble protein abundance (concentration: 10mM) |
| --- | --- | --- | --- | --- | --- | --- |
| UniProt Q7L5D6 | 0.983 ± 0.066 | 0.874 ± 0.065 | 1 ± 0.046 | 0.996 ± 0.058 | 1.04 ± 0.079 | 1.05 ± 0.038 |
| GLT8D1 (UniProt Q68CQ7) | 1.01 ± 0.031 | 1.03 ± 0.022 | 1.03 ± 0.087 | 1.06 ± 0.018 | 1.05 ± 0.055 | 1.08 ± 0.11 |
| ZFYVE16 (UniProt Q7Z3T8) | 1.02 ± 0.015 | 1.07 ± 0.058 | 1.02 ± 0.017 | 0.991 ± 0.024 | 0.972 ± 0.018 | 1.01 ± 0.052 |
